PubChem BioAssay AID1508600 (Functional Genomics Laboratory (NCATS/FGL), 2020)
The whole screen tested about 53,000 sequences, of which about 3,700 (7%) were called active.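 The calls were made as follows: active = gene knockdowns whose robust z-score for IL-1 alpha signal is at least 2 or at most -2, so actives lie on both sides; inactive = the rest.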 The list shows a part of the results.

Assay: Components of the Cytosolic LPS Sensing Pathway: Gene Identification via Genome-wide siRNA Screen;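 also: robust z of the log signal after scaling to non-targeting control siRNA wells of the plate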
Details: RAW264.7 macrophages, IL-1a HTRF, actives lie on both sides, screened at 100 nM (by protocol), cells primed 5 h with Pam3CSK4 first
Method in brief: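 Knockdown: 100 nM siRNA, 48h, RAW264.7. Stimulation: Pam3CSK4 5 h, then LipidA via TransIT-TKO 24 h. Output: supernatant IL-1a HTRF, negative-control-normalized, log robust z-score; viability by CellTiter-Glo.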

Sequence	z-score
GGAAUAAACCUUGUGCAGUTT against Polh	inactive: -1.07
CCUAAUGUUUACCACAGACTT against Mrps25	inactive: -0.867
GGCGGAGGAUCUUACUAUCTT against Foxf1	inactive: 1.05
GGAAACCUGCUCAUAGUGGTT against Olfr1188	inactive: 0.54
GCAACCUGAGGAAUUCAAUTT against Radx	inactive: 0.918
GGAGAGACCUAAAUCUCACTT against Gp9	inactive: 1.78
CCACUAUGCUUCUUGGAAUTT against Serpini2	inactive: -0.73
CCUCCUUUGGACAACGGGUTT against Cyp7a1	inactive: -1.34
GCUCAUAAUUACAUCACCATT against H3c15	inactive: -1.22
GGUCAUGGCUGGAUUUCUUTT against Olfr1462	active: -2.42
GCAGAAAUCUGCCCAGCAGTT against Svbp	inactive: -0.104
GGAGAUUCUAGAUCAUCUATT against Phldb2	inactive: 0.44
GGAUUAUCUUACAAUGUGGTT against Adam10	inactive: 0.124
GGCAGAGCUUGGAGUAUCUTT against Gtpbp4	inactive: 1.31
GCAUGGCACUUUUUUAUACTT against Olfr1535	inactive: 0.371
GAUGUACUUGAUAAAGCCUTT against Ugt2b37	active: 3.68
GGGUCAAAUCUGACUGCAUTT against Klf10	inactive: 0.501
CCACUGAAGUAGUUUCCUATT against Nipsnap3b	inactive: -0.219
GGGUGAUGGACAUAAAUGATT against Pcdhb17	inactive: -1.07
GGUAUGCAGUGAAGAGGAUTT against Paqr9	active: 2.52
GGACCAAUGCACAGAAGUATT against Jkamp	inactive: -0.183
GCUUGACGAACAGGUACUGTT against Pakap	inactive: 0.124
GGUUCCUUACCUAUUCCUATT against Tmtc1	inactive: 0.005

Sequence	z-score
GCUUCAUUUAGCUUUAACUTT against Tpp2	inactive: -1.94
GGUCUUUGUUAAGAAUCCUTT against Myo1f	inactive: -0.496
GGUGUGGGUGACCUUUAUCTT against Tmem205	inactive: -1.22
GGAAGAGAAAACAACAGUUTT against Phactr4	inactive: -1.26
CCUUGUAUCCUUAAUCCUCTT against Ppt1	inactive: 0.613
GCUACACAUGGGAACUAACTT against 4631405J19Rik	inactive: 1.51
UACAACCCGAAUGAAUCGUTT against Olfr129	inactive: 0.204
CCGAAAAUGUGGUAAAGUATT against Smg1	inactive: 0.948
GGGCUUUUAAUAGAGGUAATT against Rras2	inactive: 0.351
UGAUCGAGAAUGAACUUACTT against Gm5414	inactive: 0.925
GCUUUACUCUAAUUGAUGUTT against Chmp4c	inactive: -0.58
CCAGUUGAGUCACUUACUGTT against Borcs7	inactive: 0.667
GGAGAUAACAGAUCUGUUUTT against Fam114a2	inactive: -0.843
GCACAAUCCCAACUUGGAATT against Retnlg	inactive: 1.72
GCUGUCUGAUUGGGUCCUUTT against Lag3	inactive: -0.343
CCAUCUACACUUCCCUGCATT against BC048403	inactive: 0.389
GGAAAGGUAAUGCAUCACATT against Rev3l	inactive: -1.68
GGCUGAGUCCUAAUAGCCUTT against Celf5	inactive: -0.487
GCUGUUAAGUAAUGACAGATT against Chst7	inactive: 1.54
GUUCUUGGCAACAUGGCAGTT against Olfr551	inactive: -0.692
GCAUCUCGUGAUAUAUAAGTT against Nudt9	inactive: 0.11
GCAGAAGGUACUACUAUCGTT against Rcsd1	inactive: 0.669
CCCACAAGUGUAAAGAUCGTT against Ebag9	inactive: 0.377

As a working copy, part of the list above:
Sequence	z-score
GGAAGAGAAAACAACAGUUTT against Phactr4	inactive: -1.26
CCUUGUAUCCUUAAUCCUCTT against Ppt1	inactive: 0.613
GCUACACAUGGGAACUAACTT against 4631405J19Rik	inactive: 1.51
UACAACCCGAAUGAAUCGUTT against Olfr129	inactive: 0.204
CCGAAAAUGUGGUAAAGUATT against Smg1	inactive: 0.948
GGGCUUUUAAUAGAGGUAATT against Rras2	inactive: 0.351
UGAUCGAGAAUGAACUUACTT against Gm5414	inactive: 0.925
GCUUUACUCUAAUUGAUGUTT against Chmp4c	inactive: -0.58
CCAGUUGAGUCACUUACUGTT against Borcs7	inactive: 0.667
GGAGAUAACAGAUCUGUUUTT against Fam114a2	inactive: -0.843
GCACAAUCCCAACUUGGAATT against Retnlg	inactive: 1.72
GCUGUCUGAUUGGGUCCUUTT against Lag3	inactive: -0.343
CCAUCUACACUUCCCUGCATT against BC048403	inactive: 0.389
GGAAAGGUAAUGCAUCACATT against Rev3l	inactive: -1.68
GGCUGAGUCCUAAUAGCCUTT against Celf5	inactive: -0.487
GCUGUUAAGUAAUGACAGATT against Chst7	inactive: 1.54
GUUCUUGGCAACAUGGCAGTT against Olfr551	inactive: -0.692
GCAUCUCGUGAUAUAUAAGTT against Nudt9	inactive: 0.11
GCAGAAGGUACUACUAUCGTT against Rcsd1	inactive: 0.669
CCCACAAGUGUAAAGAUCGTT against Ebag9	inactive: 0.377

Carrying on.

Sequence	z-score
GCGGAUCUGCUUUUUGCACTT against Ttc14	inactive: -0.105
GGUGAUAAAGGGCAAAUGATT against Crls1	inactive: -1.04
CCGUAGUGGUAAACCUGGATT against Gcg	inactive: 0.065
GGUGAUGUUCCCUGUUUUCTT against Gstt1	inactive: 0.547
GCAUAUGAGAUAGUUAACATT against Ces2g	inactive: -0.249
AUCAGUGGGUUAAAUAAAGTT against Cox11	inactive: 0.069
GGGUUUUCUCAUUGUCUUUTT against Rce1	inactive: -1.91
GGACAAACAGAACACAGUGTT against Ngfr	inactive: -0.986
GGUAGUGGACCUGACCUAUTT against Hectd3	inactive: 0.00204
GGGAUGUGAGCUUGGACUUTT against Phox2b	inactive: 0.0311
GGACAGGAAUGCAUUUGUCTT against Cyfip2	inactive: -0.98
CGAGAUCAUCUCAAAUAUCTT against Man2a1	inactive: -0.0408
AUGCAUGAAAUCAUGUUGATT against Ndufa4	inactive: 0.0789
GGCCAAAGGCUCAGAUGAUTT against Hic2	inactive: -0.955
GGUUAAAAGCCAUGUGUAATT against Pggt1b	inactive: -0.151
GGUUUUCACUGCUAUAACATT against Cers6	inactive: -0.446
GGAUGUUUGGACAUCAUUUTT against 2610002M06Rik	inactive: 0.204
GGAGGUGAACAAUAUCUUCTT against Klf5	inactive: -0.334
GGUGGAUGAGGACACUAUCTT against Hs6st1	inactive: 1.88
CGAACUACCAGACAUGACUTT against Mier3	inactive: -1.34
GGUUAGAGAUCUUUUGAAATT against St14	inactive: -0.333
GUGAUUGGGAACCUGUUUATT against Paqr6	inactive: -1.35
